Results reported in PubChem BioAssay AID1919003 (Molecular Pharmacology Branch, DTP, NCI, 2023).
Several values for one entry are separate records, joined by “and”; a condition that tells them apart may be missing. Equal values may be shown once. The source gives many values for each of these; only a part stands here.

Tested on: 786-0 complex spheroids with HUVEC/MSC, growth % test/control
Assay: Anticancer human tumor 786-0 cell line growth inhibition [AhR];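 further: compound exposure lasted seven days before the read-out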
Settings: stronger effect = lower value
Excerpt: Multicellular complex tumor spheroid response to aryl hydrocarbon receptor antagonists in combination with a variety of drugs and investigational agents in selected tumor cell lines
The current study was undertaken to assess response to aryl hydrocarbon receptor antagonists in combination with standard-of-care drugs and investigational agents in solid tumor complex spheroid models. Complex spheroids include a stromal component modeled by human endothelial cells (HUVEC) and fibroblasts modeled by human mesenchymal stem cells (MSCs). The concentration ranges selected for each drug and investigational agent were based upon clinically achievable concentrations if the clinical Cmax of the agent was known.
Compounds. The drugs and investigational agents: BAY 2416964 (NSC825713), GNF351 (NSC835774), CH-223191 (NSC835775), CPI-455 (NSC825282), aza-TdCyd (NSC777586), decitabine (NSC127716), belinostat (NSC758774), entinostat (NSC756642), pevonedistat (NSC761192), tazemetostat (NSC777109), talazoparib (NSC765396), olaparib (NSC753686), selinexor (NSC780203), nedisertib (M3814, NSC802822), bortezomib (NSC756655), venetoclax (NSC766270), doxorubicin (NSC123127), elimusertib (BAY189344, NSC800525), ceralasertib (AZD6738, NSC777638), TAK-243 (NSC785004), alisertib (NSC759677), etoposide (NSC141540), topotecan (NSC609699), eribulin (NSC707389), gemcitabine (NSC613327), carboplatin (NSC241240), cisplatin (NSC119875), and SN-38 (NSC673596) were obtained from the National Cancer Institute (NCI) Developmental Therapeutics Program Chemical Repository (32). The FDA-approved anticancer drug set is available from the Developmental Therapeutics Program at https://dtp.cancer.gov/organization/dscb/obtaining/available plates.htm. […] The stock solutions were prepared in dimethyl sulfoxide (DMSO, Sigma-Aldrich, St. Louis, MO, cat. D2650), except for the platinum compounds which were prepared in saline (Quality Biological, Gaithersburg, MD, cat. 114-055-101), at 800-fold the tested concentration and stored at -70 degrees C prior to their use. All drugs and investigational agents were tested over a range starting from a high concentration at or near the clinical Cmax and decreasing in half-log increments. If the clinical Cmax for an agent had not been determined, the highest concentration tested was 10 microM (Table 1).
Cell Culture. All cells were maintained in an incubator at 37 degrees C and 5% CO2 with 95% humidity. The PDC lines were cultured according to standard operating procedures established by the NCI PDMR (https://pdmr.cancer.gov). Briefly, all PDCs were thawed and cultured in Matrigel-coated flasks prepared with a working solution of 1X Ham's F-12 nutrient mix, without supplementation (Invitrogen, Waltham, MA, cat. 11765054), 100 U/mL penicillin-streptomycin (Invitrogen, cat. 15140122), and 2.5% Matrigel (Corning Inc., Corning, NY, cat. 354248) for the first three passages. All PDCs were cultured in complete DMEM/F-12 media containing advanced DMEM/F-12 (Invitrogen, cat. 12634028), 4.9% defined fetal bovine serum, heat inactivated (HyClone Laboratories Inc., Logan, UT, cat. SH30070.03HI), 389 ng/mL hydrocortisone (Sigma-Aldrich, cat. H4001), 9.7 ng/mL human EGF recombinant protein (Invitrogen, cat. PHG0313), 23.4 microg/mL adenine (Sigma-Aldrich, cat. A2786), 97.3 U/mL penicillin-streptomycin (Invitrogen, cat. 15140122), 1.9 mM L-glutamine (Invitrogen, cat. 25030081), and 9.7 microM Y-27632 dihydrochloride (Tocris Bioscience, Bristol, United Kingdom, cat. 1254). The PDCs were cultured in complete DMEM/F12 media without 10 microM Y-27632 dihydrochloride for at least two passages prior to the screen. The established cell lines NCI-H1341 and […] were cultured in DMEM/F-12, HEPES (Invitrogen, cat. 11330032), 5% defined fetal bovine serum (HyClone Laboratories Inc., cat. SH30070.03), ITS premix universal culture supplement [insulin (5 microg/mL), transferrin (5 microg/mL), and selenious acid (5 ng/mL)] […]

With `Cc1cncc(-c2nc(NCCc3c[nH]c4ccccc34)c3ncn(C(C)C)c3n2)c1` the viability, T/C (compound 0.1 µM) was 112%, the viability, T/C (compound 0.316 µM) was 112% (2×) and 105% (2×) and the viability, T/C (compound 1 µM) was 118% and 109% (2×) and 95.9%. The viability, T/C (compound 10 µM) was 9.97% [middle of 5 runs].
For `CC(CO)NC(=O)c1cc(-c2ccc(Cl)cc2)nn(-c2cnn(C)c2)c1=O` (stereo not drawn), the viability, T/C (compound 0.1 µM) was 97.7% and 92.3% and 112%, the viability, T/C (compound 0.316 µM) was 91% and 97% and 98.7% and the viability, T/C (compound 1 µM) was 98.8% and 96.1% and 107%. For the same compound, the viability, T/C (compound 3.16 µM) was 97.8% and 101% and 95.3%.
`Cc1ccccc1N=Nc1ccc(NC(=O)c2ccnn2C)c(C)c1` was tested, and the viability, T/C (compound 0.1 µM) was 92.6% and 89.9%, the viability, T/C (compound 0.316 µM) was 96.3% [middle of 5 runs] and the viability, T/C (compound 1 µM) was 92% [middle of 5 runs]. The viability, T/C (compound 3.16 µM) was 91% [middle of 4 runs] and the viability, T/C (compound 10 µM) was 86% and 94.9% and 84.6%.
